Results are given in words; binding and its absence hold for the method and conditions named. In cells and extracts the contact can be indirect. Some results given as binding are weak or reduced against the parent protein; the word gives no strength.
Columns and labels:
[1] = molecular target: Flag-tagged Gata3 S/T-3D (phospho-mimic mutant) (UniProt P23772); assay: co-IP; 293T cells co-transfected with Flag-tagged Gata3 (WT or mutant) and the Myc- or HA-tagged partner; RIPA lysates; IP with anti-Flag mAb, IB with anti-Myc or anti-HA
[2] = molecular target: Flag-tagged Gata3 S/T-3A (phospho-impaired mutant) (UniProt P23772); assay: as above
[3] = molecular target: Flag-tagged Gata3 wild type (UniProt P23772); assay: as above
[4] = molecular target: Flag-tagged Gata3 wild type (UniProt P23772); assay: co-IP; total lysates of 293T cells expressing Flag-tagged Gata3 with myr-Akt1 or dn Akt1 were mixed with lysates of Myc-tagged Hdac2-expressing 293T cells; Hdac2 associated with Flag-Gata3 assessed by IP and IB
[5] = molecular target: Flag-tagged Gata3 wild type (UniProt P23772); assay: co-IP; two-step affinity purification: total lysates of 293T cells expressing Flag-tagged Gata3 and Myc-tagged Hdac2, first IP with anti-Flag mAb, second IP with anti-Myc mAb; IB with anti-phospho-Gata3 Ab or anti-Flag mAb

Sequences of proteins named here, by UniProt entry; tags and fusion partners are left off. A change or cut given only in a name is not applied to a line headed by its entry. A line that says so, or that is headed by a name, gives the form on record, which may keep a tag or linker.
UniProt P23772: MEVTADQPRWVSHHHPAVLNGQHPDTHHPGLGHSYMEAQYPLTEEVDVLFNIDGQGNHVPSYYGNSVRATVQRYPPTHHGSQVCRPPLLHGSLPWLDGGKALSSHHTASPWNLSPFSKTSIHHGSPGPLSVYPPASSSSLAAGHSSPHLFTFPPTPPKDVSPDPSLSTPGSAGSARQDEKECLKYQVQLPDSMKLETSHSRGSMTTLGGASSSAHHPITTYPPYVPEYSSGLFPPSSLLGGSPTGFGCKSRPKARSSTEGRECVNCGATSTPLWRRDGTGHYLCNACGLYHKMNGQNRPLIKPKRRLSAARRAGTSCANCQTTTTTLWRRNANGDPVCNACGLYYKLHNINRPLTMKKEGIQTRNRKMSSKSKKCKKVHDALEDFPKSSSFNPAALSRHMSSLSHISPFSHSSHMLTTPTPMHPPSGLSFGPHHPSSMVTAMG
Flag-tagged Gata3 S/T-3D (phospho-mimic mutant) (P23772, form named): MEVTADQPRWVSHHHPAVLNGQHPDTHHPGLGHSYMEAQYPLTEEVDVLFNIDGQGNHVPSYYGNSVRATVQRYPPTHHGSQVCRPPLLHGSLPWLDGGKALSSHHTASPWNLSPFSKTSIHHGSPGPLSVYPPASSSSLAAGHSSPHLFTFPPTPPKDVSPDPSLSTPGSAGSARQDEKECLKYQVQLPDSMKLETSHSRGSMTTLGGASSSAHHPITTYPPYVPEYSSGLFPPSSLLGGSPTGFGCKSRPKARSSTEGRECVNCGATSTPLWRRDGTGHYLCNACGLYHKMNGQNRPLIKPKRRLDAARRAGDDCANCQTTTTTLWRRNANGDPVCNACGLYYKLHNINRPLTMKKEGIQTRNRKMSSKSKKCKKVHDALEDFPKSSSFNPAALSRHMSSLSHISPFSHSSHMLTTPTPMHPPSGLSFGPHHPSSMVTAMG
Flag-tagged Gata3 S/T-3A (phospho-impaired mutant) (P23772, form named): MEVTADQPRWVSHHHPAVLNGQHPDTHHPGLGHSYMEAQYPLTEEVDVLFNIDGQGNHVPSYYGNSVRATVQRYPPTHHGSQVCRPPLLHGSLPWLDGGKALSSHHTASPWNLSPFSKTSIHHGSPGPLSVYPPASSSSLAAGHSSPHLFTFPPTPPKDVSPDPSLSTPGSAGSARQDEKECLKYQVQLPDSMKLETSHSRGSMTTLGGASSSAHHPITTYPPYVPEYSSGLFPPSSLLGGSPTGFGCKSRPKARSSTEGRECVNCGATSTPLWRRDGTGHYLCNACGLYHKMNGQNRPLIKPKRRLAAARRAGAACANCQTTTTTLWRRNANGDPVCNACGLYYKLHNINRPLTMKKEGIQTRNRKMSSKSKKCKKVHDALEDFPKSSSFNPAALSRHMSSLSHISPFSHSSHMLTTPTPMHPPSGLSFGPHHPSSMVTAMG
UniProt Q6PDQ2: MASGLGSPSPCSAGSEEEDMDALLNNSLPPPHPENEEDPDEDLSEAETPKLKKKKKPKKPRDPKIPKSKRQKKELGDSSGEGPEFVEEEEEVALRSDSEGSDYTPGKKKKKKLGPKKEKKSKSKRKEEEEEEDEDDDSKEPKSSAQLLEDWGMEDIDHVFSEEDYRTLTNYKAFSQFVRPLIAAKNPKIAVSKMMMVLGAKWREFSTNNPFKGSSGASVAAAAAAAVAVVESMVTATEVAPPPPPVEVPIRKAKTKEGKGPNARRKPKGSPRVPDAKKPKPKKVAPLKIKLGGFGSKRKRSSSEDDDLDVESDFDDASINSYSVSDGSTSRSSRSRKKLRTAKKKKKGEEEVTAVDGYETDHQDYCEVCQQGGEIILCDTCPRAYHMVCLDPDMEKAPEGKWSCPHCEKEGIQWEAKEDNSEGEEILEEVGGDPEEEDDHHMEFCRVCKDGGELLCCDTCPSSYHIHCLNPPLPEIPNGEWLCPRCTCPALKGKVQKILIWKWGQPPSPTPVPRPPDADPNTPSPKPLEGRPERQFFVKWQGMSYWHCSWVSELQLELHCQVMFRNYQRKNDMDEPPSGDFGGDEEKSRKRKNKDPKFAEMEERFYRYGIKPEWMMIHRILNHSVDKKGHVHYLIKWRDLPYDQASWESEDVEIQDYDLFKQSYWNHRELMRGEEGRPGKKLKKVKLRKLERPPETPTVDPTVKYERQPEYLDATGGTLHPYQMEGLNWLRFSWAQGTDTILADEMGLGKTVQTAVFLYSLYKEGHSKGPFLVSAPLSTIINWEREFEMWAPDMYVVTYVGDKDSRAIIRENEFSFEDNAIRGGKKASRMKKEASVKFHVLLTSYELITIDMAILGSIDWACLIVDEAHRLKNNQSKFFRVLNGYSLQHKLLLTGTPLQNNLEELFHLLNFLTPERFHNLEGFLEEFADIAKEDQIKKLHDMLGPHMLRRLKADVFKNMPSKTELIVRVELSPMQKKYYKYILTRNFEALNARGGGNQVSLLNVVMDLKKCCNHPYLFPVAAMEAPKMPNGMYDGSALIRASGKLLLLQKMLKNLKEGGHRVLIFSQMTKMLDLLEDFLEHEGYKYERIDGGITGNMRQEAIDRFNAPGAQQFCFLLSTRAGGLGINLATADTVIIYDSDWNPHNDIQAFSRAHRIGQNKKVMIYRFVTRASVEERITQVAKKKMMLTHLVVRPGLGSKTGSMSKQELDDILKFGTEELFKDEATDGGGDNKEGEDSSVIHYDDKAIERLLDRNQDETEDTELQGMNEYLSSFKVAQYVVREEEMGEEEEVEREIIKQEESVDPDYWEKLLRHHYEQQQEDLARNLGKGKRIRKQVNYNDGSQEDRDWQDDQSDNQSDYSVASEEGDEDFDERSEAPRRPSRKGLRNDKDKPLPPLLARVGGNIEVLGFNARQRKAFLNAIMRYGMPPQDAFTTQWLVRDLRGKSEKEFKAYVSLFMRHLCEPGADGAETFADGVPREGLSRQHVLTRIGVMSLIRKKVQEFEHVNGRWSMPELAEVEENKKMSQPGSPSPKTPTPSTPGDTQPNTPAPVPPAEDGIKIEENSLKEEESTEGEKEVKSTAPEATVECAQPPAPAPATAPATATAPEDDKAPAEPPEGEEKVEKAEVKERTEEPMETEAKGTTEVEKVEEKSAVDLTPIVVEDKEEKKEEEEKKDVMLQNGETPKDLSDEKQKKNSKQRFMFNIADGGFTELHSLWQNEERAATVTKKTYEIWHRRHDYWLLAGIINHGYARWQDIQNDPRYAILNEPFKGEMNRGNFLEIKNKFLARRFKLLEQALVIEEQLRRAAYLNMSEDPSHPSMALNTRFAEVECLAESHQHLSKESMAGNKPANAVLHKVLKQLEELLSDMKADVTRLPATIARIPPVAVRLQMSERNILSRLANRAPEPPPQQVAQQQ
UniProt P70288: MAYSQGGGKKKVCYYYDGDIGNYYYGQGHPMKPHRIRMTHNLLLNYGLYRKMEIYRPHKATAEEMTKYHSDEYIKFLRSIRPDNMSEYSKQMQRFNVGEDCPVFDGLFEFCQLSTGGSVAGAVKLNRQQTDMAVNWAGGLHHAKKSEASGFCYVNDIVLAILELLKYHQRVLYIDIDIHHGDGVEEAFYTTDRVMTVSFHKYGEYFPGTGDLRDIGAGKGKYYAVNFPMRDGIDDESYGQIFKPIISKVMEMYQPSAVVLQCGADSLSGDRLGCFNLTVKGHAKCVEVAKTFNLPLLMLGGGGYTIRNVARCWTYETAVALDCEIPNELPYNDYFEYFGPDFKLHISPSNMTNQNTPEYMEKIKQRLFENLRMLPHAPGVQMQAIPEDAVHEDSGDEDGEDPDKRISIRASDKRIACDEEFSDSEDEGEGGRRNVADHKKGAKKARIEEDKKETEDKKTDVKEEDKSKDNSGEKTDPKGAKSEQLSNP
UniProt Q09472: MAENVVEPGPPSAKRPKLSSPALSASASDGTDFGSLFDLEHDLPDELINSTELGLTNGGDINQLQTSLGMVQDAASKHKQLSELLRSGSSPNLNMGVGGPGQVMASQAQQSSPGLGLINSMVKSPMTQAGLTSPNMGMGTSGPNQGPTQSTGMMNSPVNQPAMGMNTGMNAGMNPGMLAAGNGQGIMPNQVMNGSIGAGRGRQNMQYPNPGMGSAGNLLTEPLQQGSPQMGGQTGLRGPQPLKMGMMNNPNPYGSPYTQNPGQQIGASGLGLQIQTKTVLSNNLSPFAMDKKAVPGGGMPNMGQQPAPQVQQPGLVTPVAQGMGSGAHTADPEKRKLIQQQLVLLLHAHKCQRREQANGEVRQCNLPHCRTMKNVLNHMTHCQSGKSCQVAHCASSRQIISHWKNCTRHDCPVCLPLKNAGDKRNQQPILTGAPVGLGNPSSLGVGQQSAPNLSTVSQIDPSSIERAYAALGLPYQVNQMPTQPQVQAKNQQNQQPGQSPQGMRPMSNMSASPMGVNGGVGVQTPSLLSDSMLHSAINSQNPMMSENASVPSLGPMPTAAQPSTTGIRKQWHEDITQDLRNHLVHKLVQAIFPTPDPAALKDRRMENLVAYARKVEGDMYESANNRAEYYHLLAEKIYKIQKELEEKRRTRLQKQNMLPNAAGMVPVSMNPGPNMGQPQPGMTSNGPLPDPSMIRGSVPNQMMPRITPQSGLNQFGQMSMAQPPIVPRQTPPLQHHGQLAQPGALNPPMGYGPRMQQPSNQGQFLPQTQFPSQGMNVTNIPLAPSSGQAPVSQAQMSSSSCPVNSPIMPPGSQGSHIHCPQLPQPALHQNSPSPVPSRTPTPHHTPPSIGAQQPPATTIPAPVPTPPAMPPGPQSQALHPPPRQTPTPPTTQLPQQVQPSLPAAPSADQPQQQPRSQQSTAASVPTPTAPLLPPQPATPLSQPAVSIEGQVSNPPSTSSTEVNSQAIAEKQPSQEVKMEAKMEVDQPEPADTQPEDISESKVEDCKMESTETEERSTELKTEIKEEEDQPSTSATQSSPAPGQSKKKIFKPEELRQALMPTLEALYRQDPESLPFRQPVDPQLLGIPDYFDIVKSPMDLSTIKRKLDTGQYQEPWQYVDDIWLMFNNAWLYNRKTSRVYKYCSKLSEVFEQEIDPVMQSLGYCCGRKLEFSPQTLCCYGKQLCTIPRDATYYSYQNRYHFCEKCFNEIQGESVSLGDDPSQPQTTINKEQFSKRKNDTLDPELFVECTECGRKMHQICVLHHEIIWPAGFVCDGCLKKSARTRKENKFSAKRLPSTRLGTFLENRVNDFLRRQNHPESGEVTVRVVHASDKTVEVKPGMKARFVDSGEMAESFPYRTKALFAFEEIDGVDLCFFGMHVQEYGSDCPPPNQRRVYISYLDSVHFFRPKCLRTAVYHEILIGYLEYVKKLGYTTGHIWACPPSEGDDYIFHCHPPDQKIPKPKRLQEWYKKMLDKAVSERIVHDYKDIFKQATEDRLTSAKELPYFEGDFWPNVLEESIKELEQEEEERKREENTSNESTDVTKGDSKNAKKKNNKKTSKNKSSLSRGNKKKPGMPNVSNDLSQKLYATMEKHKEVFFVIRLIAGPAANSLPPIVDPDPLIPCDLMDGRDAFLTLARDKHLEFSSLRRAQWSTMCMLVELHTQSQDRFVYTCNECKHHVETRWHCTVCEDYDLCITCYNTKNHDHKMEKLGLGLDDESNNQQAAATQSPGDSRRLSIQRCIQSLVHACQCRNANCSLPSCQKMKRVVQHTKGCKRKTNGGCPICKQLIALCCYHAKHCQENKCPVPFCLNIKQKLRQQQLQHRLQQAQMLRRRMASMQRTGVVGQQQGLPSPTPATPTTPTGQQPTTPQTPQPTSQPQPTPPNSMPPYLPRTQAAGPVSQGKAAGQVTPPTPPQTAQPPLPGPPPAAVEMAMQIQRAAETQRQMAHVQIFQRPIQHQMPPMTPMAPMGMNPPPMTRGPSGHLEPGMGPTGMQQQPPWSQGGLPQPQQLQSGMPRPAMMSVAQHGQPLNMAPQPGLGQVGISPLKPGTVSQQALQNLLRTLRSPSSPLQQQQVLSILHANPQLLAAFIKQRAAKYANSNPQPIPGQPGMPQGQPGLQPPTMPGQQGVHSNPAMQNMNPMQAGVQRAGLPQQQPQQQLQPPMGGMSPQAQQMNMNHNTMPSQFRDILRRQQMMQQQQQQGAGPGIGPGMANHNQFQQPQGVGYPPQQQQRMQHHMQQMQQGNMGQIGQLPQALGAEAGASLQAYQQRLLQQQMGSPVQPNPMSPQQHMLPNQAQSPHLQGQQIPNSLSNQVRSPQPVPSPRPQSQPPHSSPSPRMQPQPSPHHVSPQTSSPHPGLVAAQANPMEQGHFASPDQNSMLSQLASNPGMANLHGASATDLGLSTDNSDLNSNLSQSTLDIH

Measured: binding

Myc-tagged Chd4 (from UniProt Q6PDQ2 1-1915)
binds: [1] | [2] | [3]

Myc-tagged Hdac2 (histone deacetylase 2) (from UniProt P70288 1-488)
binds: [3] | [4] | [5]

HA-tagged p300 (from UniProt Q09472 1-2414)
binds: [1] | [2] | [3]

From publication PMC4829694
